# Test results published in the supplement of paper PMC10849652.
# By UniProt entry, the sequences of proteins in these tests, tags left out. Where a name states a change or a piece, a line headed by the entry shows the natural chain unless it says otherwise.
# UniProt Q9UHX1: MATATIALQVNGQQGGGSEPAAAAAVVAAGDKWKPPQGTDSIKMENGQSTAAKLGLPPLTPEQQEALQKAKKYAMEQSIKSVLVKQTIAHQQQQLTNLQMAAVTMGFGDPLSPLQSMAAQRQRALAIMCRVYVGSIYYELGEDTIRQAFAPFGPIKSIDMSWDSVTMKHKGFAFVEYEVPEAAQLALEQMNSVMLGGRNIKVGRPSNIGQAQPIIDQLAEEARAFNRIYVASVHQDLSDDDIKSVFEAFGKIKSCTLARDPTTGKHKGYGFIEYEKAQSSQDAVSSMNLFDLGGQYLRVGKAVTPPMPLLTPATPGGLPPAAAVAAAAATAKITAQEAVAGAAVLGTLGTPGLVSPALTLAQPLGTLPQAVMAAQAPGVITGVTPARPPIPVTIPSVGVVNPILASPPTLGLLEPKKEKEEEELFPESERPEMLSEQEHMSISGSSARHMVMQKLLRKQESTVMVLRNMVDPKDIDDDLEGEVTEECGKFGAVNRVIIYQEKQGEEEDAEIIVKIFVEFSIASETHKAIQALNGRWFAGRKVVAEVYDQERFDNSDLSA
# UniProt P28070, whole entry, looked up: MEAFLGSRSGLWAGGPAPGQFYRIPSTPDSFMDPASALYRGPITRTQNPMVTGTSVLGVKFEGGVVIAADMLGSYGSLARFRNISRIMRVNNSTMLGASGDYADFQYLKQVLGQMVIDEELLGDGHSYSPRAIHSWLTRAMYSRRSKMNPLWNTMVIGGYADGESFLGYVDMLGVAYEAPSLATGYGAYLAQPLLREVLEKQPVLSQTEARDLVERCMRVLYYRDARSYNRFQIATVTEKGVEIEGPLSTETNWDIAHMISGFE
# UniProt Q8N8N7: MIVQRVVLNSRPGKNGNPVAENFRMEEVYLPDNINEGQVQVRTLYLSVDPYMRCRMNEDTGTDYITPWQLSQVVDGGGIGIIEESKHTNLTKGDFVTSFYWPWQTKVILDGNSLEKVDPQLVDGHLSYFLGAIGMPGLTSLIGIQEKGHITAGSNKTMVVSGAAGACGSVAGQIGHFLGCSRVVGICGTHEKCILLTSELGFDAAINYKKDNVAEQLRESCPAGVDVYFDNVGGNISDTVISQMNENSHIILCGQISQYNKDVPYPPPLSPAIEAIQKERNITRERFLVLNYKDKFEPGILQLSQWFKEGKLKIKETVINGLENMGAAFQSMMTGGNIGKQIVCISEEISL
# UniProt P43378: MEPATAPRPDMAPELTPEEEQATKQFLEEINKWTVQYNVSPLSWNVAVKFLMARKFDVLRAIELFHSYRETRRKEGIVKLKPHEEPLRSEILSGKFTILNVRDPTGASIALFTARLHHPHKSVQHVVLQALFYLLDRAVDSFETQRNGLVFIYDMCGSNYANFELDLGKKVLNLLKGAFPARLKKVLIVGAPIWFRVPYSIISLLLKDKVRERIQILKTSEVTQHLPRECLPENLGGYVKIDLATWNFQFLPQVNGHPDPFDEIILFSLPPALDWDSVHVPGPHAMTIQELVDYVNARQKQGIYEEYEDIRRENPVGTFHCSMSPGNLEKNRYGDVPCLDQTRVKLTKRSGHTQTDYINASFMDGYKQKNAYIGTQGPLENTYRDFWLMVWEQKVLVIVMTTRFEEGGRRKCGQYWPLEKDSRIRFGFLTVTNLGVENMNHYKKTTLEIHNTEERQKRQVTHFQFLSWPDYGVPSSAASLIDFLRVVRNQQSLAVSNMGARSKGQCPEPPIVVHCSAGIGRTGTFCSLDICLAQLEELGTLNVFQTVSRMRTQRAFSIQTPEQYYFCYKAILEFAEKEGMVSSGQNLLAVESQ
# Some of the results follow.
# How the values were obtained:
# Assay in all cases: log2 fold change, soluble protein after heating vs DMSO (PISA); higher = thermal stabilisation; K562 lysate, 10 uM; active = over 0.2 and 3.5 SD of the protein, either way, in both replicates (recomputed)
# alvocidib = compound: CN1CC[C@H](c2c(O)cc(O)c3c(=O)cc(-c4ccccc4Cl)oc23)[C@H](O)C1 [alvocidib]
# In short: (§1)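 The values are log-two fold changes in thermal stability compared with solvent controls and come from duplicates. They were obtained by TMTpro 16plex LC-MS/MS, with channel sums equalised, on the supernatant after 21,000xg for 90 min. That supernatant came from crude K562 extract at 1 mg/mL protein treated with 10 μM compound for 30 min, heated for 3 min across 48°C-58°C, pooled and brought to 0.5% NP-40 at 4°C.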
# Tubastatin A = compound: CN1CCc2c(c3ccccc3n2Cc2ccc(C(=O)NO)cc2)C1 [Tubastatin A]
# In short: as §1
# [1] = compound: CNC(=O)C1=CC=CC=C1NC2=NC(=NC=C2Cl)NC3=C(C=C(C=C3)N4CCOCC4)OC
# In short: as §1
# defactinib = compound: CNC(=O)c1ccc(Nc2ncc(C(F)(F)F)c(NCc3nccnc3N(C)S(C)(=O)=O)n2)cc1 [defactinib]
# In short: as §1
# [2] = compound: CNc1nc(-c2ccc3c(N)n[nH]c3c2)cc(N2C[C@@H](C(=O)NC3CCCCC3)CC[C@H]2C)n1
# In short: as §1
# encorafenib = compound: COC(=O)N[C@@H](C)CNc1nccc(-c2cn(C(C)C)nc2-c2cc(Cl)cc(NS(C)(=O)=O)c2F)n1 [encorafenib]
# In short: as §1
# [3] = compound: COC(=O)[C@H](CCSC)NC(=O)C1=C(C=C(C=C1)NC[C@H](CS)N)C2=CC=CC=C2
# In short: as §1
# alisertib = compound: COc1cc(Nc2ncc3c(n2)-c2ccc(Cl)cc2C(c2c(F)cccc2OC)=NC3)ccc1C(=O)O [alisertib]
# In short: as §1
# [4] = compound: COc1cc2nc(-c3cc(F)ccc3O)nc(N[C@@H]3CNC[C@H]3C(C)(C)O)c2cc1OC
# In short: as §1
# gefitinib = compound: COc1cc2ncnc(Nc3ccc(F)c(Cl)c3)c2cc1OCCCN1CCOCC1 [gefitinib]
# In short: as §1
# lapatinib = compound: CS(=O)(=O)CCNCc1ccc(-c2ccc3ncnc(Nc4ccc(OCc5cccc(F)c5)c(Cl)c4)c3c2)o1 [lapatinib]
# In short: as §1
# pictilisib = compound: CS(=O)(=O)N1CCN(Cc2cc3nc(-c4cccc5[nH]ncc45)nc(N4CCOCC4)c3s2)CC1 [pictilisib]
# In short: as §1
# crizotinib = compound: C[C@@H](Oc1cc(-c2cnn(C3CCNCC3)c2)cnc1N)c1c(Cl)ccc(F)c1Cl [crizotinib]
# In short: as §1
# [5] = compound: C[C@H](C1=CC=C(C=C1)C(=O)NC2=C3C=CNC3=NC=C2)N
# In short: as §1
# duvelisib = compound: C[C@H](Nc1ncnc2nc[nH]c12)c1cc2cccc(Cl)c2c(=O)n1-c1ccccc1 [duvelisib]
# In short: as §1
# gandotinib = compound: Cc1cc(Nc2cc(CN3CCOCC3)c3nc(C)c(Cc4ccc(Cl)cc4F)n3n2)n[nH]1 [gandotinib]
# In short: as §1
# tozasertib = compound: Cc1cc(Nc2cc(N3CCN(C)CC3)nc(Sc3ccc(NC(=O)C4CC4)cc3)n2)n[nH]1 [tozasertib]
# In short: as §1
# doramapimod = compound: Cc1ccc(-n2nc(C(C)(C)C)cc2NC(=O)Nc2ccc(OCCN3CCOCC3)c3ccccc23)cc1 [doramapimod]
# In short: as §1
# bafetinib = compound: Cc1ccc(NC(=O)c2ccc(CN3CC[C@H](N(C)C)C3)c(C(F)(F)F)c2)cc1Nc1nccc(-c2cncnc2)n1 [bafetinib]
# In short: as §1
# [6] = compound: Cc1cccc(CC(=O)N2CCc3c2ccc(-c2cn(C)c4ncnc(N)c24)c3F)n1
# In short: as §1
Target,log2 fold change (alvocidib),log2 fold change (Tubastatin A),log2 fold change [1],log2 fold change (defactinib),log2 fold change [2],log2 fold change (encorafenib),log2 fold change [3],log2 fold change (alisertib),log2 fold change [4],log2 fold change (gefitinib),log2 fold change (lapatinib),log2 fold change (pictilisib),log2 fold change (crizotinib),log2 fold change [5],log2 fold change (duvelisib),log2 fold change (gandotinib),log2 fold change (tozasertib),log2 fold change (doramapimod),log2 fold change (bafetinib),log2 fold change [6]
PUF60 (UniProt Q9UHX1),inactive: 0.003,inactive: 0.019,inactive: -0.02,inactive: -0.012,inactive: 0.008,inactive: -0.013,inactive: 0.019,inactive: 0.005,inactive: -0.009,inactive: -0.022,inactive: 0,inactive: -0.037,inactive: 0.036,inactive: 0.092,inactive: -0.01,inactive: -0.05,inactive: -0.017,inactive: -0.012,inactive: 0.012,inactive: -0.058
PSMB4 (UniProt P28070),inactive: -0.02,inactive: 0.061,inactive: -0.034,inactive: -0.014,inactive: 0.017,inactive: -0.007,inactive: -0.018,inactive: 0.023,inactive: 0.017,inactive: -0.015,inactive: -0.049,inactive: -0.002,inactive: -0.029,inactive: -0.02,inactive: 0.044,inactive: 0.026,inactive: -0.033,inactive: 0.029,inactive: 0.012,inactive: 0.011
PTGR2 (UniProt Q8N8N7),inactive: 0.018,inactive: -0.023,inactive: 0.02,inactive: 0.018,inactive: -0.021,inactive: -0.043,active: 0.694,inactive: 0.014,inactive: 0.004,inactive: -0.007,inactive: -0.003,inactive: 0.014,inactive: -0.029,inactive: -0.04,inactive: 0.02,inactive: 0.01,inactive: 0.04,inactive: -0.04,inactive: -0.003,inactive: -0.004
PTPN9 (UniProt P43378),inactive: 0.026,inactive: 0.191,inactive: 0.104,inactive: 0.108,inactive: -0.13,inactive: -0.167,inactive: 0.286,inactive: 0.001,inactive: 0.111,inactive: -0.374,inactive: 0.316,inactive: -0.043,inactive: 0.04,inactive: -0.164,inactive: 0.009,inactive: 0.284,inactive: -0.063,inactive: 0.029,inactive: -0.133,inactive: 0.297
